Values of other authors, collected in US8609413B2, “Neurons, astrocytes and oligodendrocytes differentiated from a mammalian pluripotent or neural stem cells exposed to a pyridine deriviative” (Research Development Foundation, priority 2007, dated 2013).
For at least one compound, name, drawing or mass did not settle the structure.

Legend:
human ES cells = conditions: Metallo et al., 2007; cited from earlier work
ES cells = conditions: cited from earlier work

Which lineage of differentiation (human ES cells) does the source give for `CC1=C(/C=C/C(C)=C/C=C/C(C)=C/C(=O)O)C(C)(C)CCC1` [retinoic acid] here?
Its lineage of differentiation is “differentiate towards epithelial cells”.

And the lineage of differentiation (ES cells)?
Its lineage of differentiation is “differentiation mainly of glial cells”.
